Reference: the supplement of paper PMC12578635
± gives the standard deviation of the averaged measurements. Some of the results follow. Single values are uncertain, as repeats are few or missing.

test system: RAW 264.7 macrophages infected with S. aureus JE2-lux; assay: host macrophage viability (CellTiter-Fluor) relative to DMSO vehicle; higher = more viable host cells; details: 10 µM; treatment time 4 h; gentamicin 50 µg/ml

Row | SMILES | host macrophage viability
1 | CCc1ccc(-c2noc3c(=O)n(CCC(=O)N4CCCc5ccccc54)cnc23)cc1 | 116%
2 | CCOC(=O)c1cc(NC(=O)Nc2ccccn2)c(C)nc1C | 108%
3 | Cc1ccc(S(=O)(=O)N2CCCc3ccc(NC(=O)C(=O)Nc4ccc(F)cc4)cc32)cc1 | 105%
4 | O=C(Nc1ccc(C(O)CN2CCC(O)(c3ccccc3F)CC2)cc1)C1CC1 (stereo not drawn) | 124%
5 | Cc1ccc([N+](=O)[O-])cc1NC(=O)CCN1C(=O)c2ccccc2S1(=O)=O | 114%
6 | COc1ccc(NC(=O)CSc2nc3ccccc3cc2C)c(OC)c1 | 101%
7 | O=C(Nc1ccc(Oc2cccnc2)cc1)c1[nH]nc2c1CCCCC2 | 122%
8 | COc1cccc(-c2nc3n(n2)C(c2ccccc2F)C(C(N)=O)=C(C)N3)c1 (stereo not drawn) | 110%
9 | Cc1nn2c(C)c(C(=O)N3CCN(C4CCCCC4)CC3)cnc2c1-c1ccccc1 | 121%
10 | O=c1[nH]c(CSc2nc3ccccc3[nH]2)nc2ccccc12 | 110%
11 | CCOc1cccc2sc(N(Cc3cccnc3)C(=O)Cc3ccc(F)cc3)nc12 | 99.6%
12 | CCc1ccc(Nc2nc(C)c3nc(C(F)(F)F)n(-c4ccc(CC)cc4)c3n2)cc1 | 124%
13 | CCOc1ccc(NC(=O)N2CCC(c3nc4cc(C)ccc4[nH]3)CC2)cc1 | 116%
14 | CCOC(=O)c1sc(N/N=C2/C(=N)N(c3ccccc3)N=C2C)c(C(=O)OCC)c1C | 104%
15 | COc1ccc2cc(C#N)c(SCC(=O)Nc3nonc3C)nc2c1 | 142%
16 | COc1cc(NC(=O)C2CCN(c3cnccn3)CC2)cc(OC)c1 | 109%
17 | Cn1nc(C(=O)N2CCCC2)c2c1CCN(S(=O)(=O)c1cccc3cccnc13)C2 | 119%
18 | CC(=O)Oc1ccc(/C=C(\C#N)c2nc(-c3ccc(Cl)cc3)cs2)cc1 | 112 ± 19%
19 | CC(NC(=O)c1ncoc1-c1ccc2ccccc2c1)c1ccccn1 (stereo not drawn) | 96.4%
20 | O=c1[nH]c(-c2cccc(O)c2)nc2c1Cc1c(ccc3ccccc13)O2 | 136%
21 | CCCNC(=O)N1CCC(n2c(C)nc3cccnc32)CC1 | 109%
22 | Cc1ccc(CN2CCCn3nc(C(=O)NC(C)C)cc3C2=O)cc1 | 109%
23 | COc1ccc(C(NC(=O)c2ccc3nc(C)sc3c2)c2ccncc2)cc1 (stereo not drawn) | 114%
24 | O=C(CN1C(=O)COc2ccccc21)NNC(=O)NC1CCCCC1 | 122%
25 | CC(C)[C@H](Cn1nc(C2CC2)ccc1=O)NC(=O)Cn1nnc2ccccc21 | 120%
26 | COc1ccc2sc(Nc3ccccc3C#N)nc2c1 | 102%

Arranged by formula weight (ascending): part of the list above.
Row | SMILES | host macrophage viability
26 | COc1ccc2sc(Nc3ccccc3C#N)nc2c1 | 102%
16 | COc1cc(NC(=O)C2CCN(c3cnccn3)CC2)cc(OC)c1 | 109%
25 | CC(C)[C@H](Cn1nc(C2CC2)ccc1=O)NC(=O)Cn1nnc2ccccc21 | 120%
4 | O=C(Nc1ccc(C(O)CN2CCC(O)(c3ccccc3F)CC2)cc1)C1CC1 (stereo not drawn) | 124%
1 | CCc1ccc(-c2noc3c(=O)n(CCC(=O)N4CCCc5ccccc54)cnc23)cc1 | 116%

The list goes on.

Row | SMILES | host macrophage viability
27 | CCc1nnc2ccc(C(=O)NCCN3CCCC3)cn12 | 109%
28 | Cc1ccc(-c2nnc3ccccc3c2C(=O)N(C)Cc2ccccc2)cc1 | 115%
29 | CC1CC(C)CN(C(=O)c2ccc3c(=O)n(CCC4=CCCCC4)c(=S)[nH]c3c2)C1 (stereo not drawn) | 110%
30 | CCN(CC)C(=O)Cn1nc2c3ccccc3nc(C(C)(C)C)n2c1=O | 130%
31 | Cn1c(=O)n(CC(N)=O)c(=O)c2c1nc(Br)n2Cc1ccccc1 | 105%
32 | O=C(NCCc1csc2nc(-c3ccc(F)cc3)nn12)C(=O)Nc1ccc(Cl)cc1 | 115%
33 | O=C(Nc1ccc2c(c1)N(C(=O)C1CC1)CCC2)c1ccc([N+](=O)[O-])cc1 | 99.7%
34 | COc1ccc(NS(=O)(=O)c2cc3c4c(c2)CCN4C(=O)CC3)cc1Cl | 125%
35 | CN(C)/C=N/c1c(C#N)cnn1-c1ccc(Cl)nn1 | 113%
36 | CCCN1CCN(c2ncnc3sc(C(=O)Nc4cc(OC)cc(OC)c4)c(C)c23)CC1 | 118%
37 | O=C(Nc1cccc2ccccc12)N1CCCC(O)C1 (stereo not drawn) | 112%
38 | CC1=C(C(=O)Nc2ccc(C)c(Cl)c2)C(c2ccc(C)cc2)NC(=O)N1 (stereo not drawn) | 115%
39 | COc1nn(C)cc1C(=O)Nc1cccc(C(F)(F)F)c1 | 116%
40 | COc1ccccc1NCc1nc2[nH]c(C)cc(=O)n2n1 | 96.9%
41 | COCCN(CCOC)C(=O)CN1C(=O)c2ccccc2S1(=O)=O | 111%
42 | O=C1CN(C(=O)CSc2nnc(-c3ccccc3)c(-c3ccccc3)n2)c2ccccc2N1 | 97.7%
43 | O=C(NCCc1cn2ccccc2n1)c1ccc([N+](=O)[O-])cc1 | 115%
44 | Fc1cc(F)c2nc(N3CCc4ccccc4C3)sc2c1 | 108 ± 0.52%
45 | Cc1ccc(-c2cc(N)c(=O)n(CC(=O)NCC3CCCO3)n2)o1 (stereo not drawn) | 115%
46 | COC(=O)c1c(NC(=O)/C=C/c2ccccc2Cl)sc2c1CC(C)(C)NC2(C)C | 124%
47 | Cn1c(=O)c2c(nc3n2CC(C(C)(C)C)=NN3Cc2ccccc2Cl)n(C)c1=O | 109%
48 | O=S(=O)(Nc1cccc(-c2ccc(N3CCOCC3)nn2)c1)c1ccc(Cl)c(Cl)c1 | 119%
49 | COc1ccccc1N1CCN(C(=O)CSc2nnc3ccc(C(=O)Nc4ccc(C)cc4)cn23)CC1 | 112%
50 | Cc1cc(Cl)ccc1OCc1nc(-c2ccc3c(c2)[nH]c(=O)n3C2CCCC2)no1 | 124%
51 | O=C1NC(=S)/C(=C\c2ccc(-c3cc(Cl)ccc3Cl)o2)S1 | 98.4%
52 | Cc1ccc(S(=O)(=O)CCC(=O)N(CCN(C)C)c2nc3cc(C)cc(C)c3s2)cc1 | 69.5%

Row | SMILES | host macrophage viability
53 | O=C(Cn1cnc2c(cnn2-c2ccc(F)cc2)c1=O)NCC1CCCO1 (stereo not drawn) | 107 ± 7.2%
54 | COc1ccc(CCNC(=O)c2c(O)nc3scc(C)n3c2=O)cc1 | 123%
55 | Cc1cc2ncc(N3CCN(C4CCCCC4)CC3)nc2cc1C | 128%
56 | COc1ccc(-c2cnc(NC(=O)c3ccc4nc(C)[nH]c4c3)n2C)cc1 | 117%
57 | Cc1nnc(NC(=O)c2cc(Cl)ccc2Cl)s1 | 106%
58 | COc1cc([N+](=O)[O-])cc2sc(NC(=O)c3ccc(N4C(=O)CCC4=O)cc3)nc12 | 106%
59 | O=C(CSC1=NS(=O)(=O)c2ccccc2N1)N1CCCC1 | 126%
60 | COC(=O)C1CCN(C(c2cccs2)c2sc3ncnn3c2O)CC1 (stereo not drawn) | 113%
61 | CCOc1ccc2nc(-n3nc(C)c4c3NC(=O)CC4c3ccc([N+](=O)[O-])s3)sc2c1 (stereo not drawn) | 138%
62 | CCn1c(=O)c2sccc2n2c(CCCC(=O)NCCc3ccc(S(N)(=O)=O)cc3)nnc12 | 122%
63 | O=C(CSc1nc(=O)n2ccccc2n1)Nc1ccccc1C(F)(F)F | 109%
64 | O=C(CSc1ncnc2c1oc1ccccc12)NCC1CCCO1 (stereo not drawn) | 122%
65 | Cc1oc(-c2ccno2)cc1S(=O)(=O)NCCC1=CCCCC1 | 121%
66 | CCOC(=O)c1ccc(NC(=O)CSc2nccnc2N2CCN(c3ccccc3)CC2)cc1 | 88.1%
67 | Cc1ccc(-c2nc3nc(C)cc(NCCO)n3n2)cc1 | 117%
68 | Cc1ccc(C2=N/C(=C/c3ccc([N+](=O)[O-])cc3)C(=O)O2)cc1 | 119%
69 | Cc1ccc(-c2nc(CN3CCC(C(=O)Nc4ncccc4O)CC3)no2)cc1 | 116%
70 | Cc1ccc2c(c1)NC(=O)c1cc(NS(=O)(=O)c3ccc(C)c(Cl)c3)ccc1O2 | 124%
71 | O=C(CCn1c(=S)oc2ccccc21)Nc1ccc(F)cc1 | 127%
72 | O=C1c2oc3ccc(Cl)cc3c(=O)c2C(c2cccnc2)N1Cc1ccco1 (stereo not drawn) | 126%
73 | CC(=O)Nc1cccc(Oc2nnc(Oc3cccc(NC(C)=O)c3)c3ccccc23)c1 | 138%
74 | CN(C)c1nc2c(c(=O)[nH]c(=O)n2C)n1CCSc1nc2ccccc2o1 | 133%
75 | O=C(Nc1cccc(N2CCCC2)c1)c1cc(-c2ccccn2)n[nH]1 | 113%
76 | COC(=O)c1ccc(COc2coc(CN3c4ccccc4CC3C)cc2=O)cc1 (stereo not drawn) | 107%
77 | CCOC(=O)c1c(NC(=O)c2cc(Cl)ccc2[N+](=O)[O-])sc(C)c1C | 138%
78 | CCOc1ccc(C(=O)C2CCN(CC(=O)Nc3nccs3)CC2)cc1 | 125%

2 compounds picked at random from those above:
Row | SMILES | host macrophage viability
66 | CCOC(=O)c1ccc(NC(=O)CSc2nccnc2N2CCN(c3ccccc3)CC2)cc1 | 88.1%
8 | COc1cccc(-c2nc3n(n2)C(c2ccccc2F)C(C(N)=O)=C(C)N3)c1 (stereo not drawn) | 110%

(more compounds)

Row | SMILES | host macrophage viability
79 | Cc1cc(NS(=O)(=O)c2ccc(NC(=O)c3cc4c(ccc5ccccc54)oc3=O)cc2)no1 | 106%
80 | CC(C)CNC(=O)c1cncc(NS(=O)(=O)c2ccc3c(c2)OCCO3)c1 | 116%
81 | O=c1[nH]c2ccc(S(=O)(=O)Nc3ccccc3O)cc2[nH]1 | 121%
82 | Cc1c(C(=O)O)sc2nc(SCC(=O)O)[nH]c(=O)c12 | 111%
83 | Cc1c[nH]c(=O)nc1SCC(=O)NC1CCCCC1 | 121%
84 | Cc1ccc(CN2CCc3nc(SCC(=O)Nc4cccc(C)c4C)[nH]c(=O)c3C2)cc1 | 137%
85 | CCC(=O)Nc1cccnc1-c1ccc(C(=O)NCc2cccc(OC)c2)cc1 | 130%
86 | COc1ccc(N2CCN(C(=O)CSc3nnc4c(n3)[nH]c3ccccc34)CC2)cc1 | 112%
87 | O=C1NC(=O)C2C1C(c1ccc(Cl)cc1)NN2Cc1ccccc1 (stereo not drawn) | 118%
88 | Cc1cc(C)nc(N2CCC(C(=O)NNC(=O)c3ccccc3)CC2)n1 | 116%
89 | Cc1cc(=O)n2nc(CN(C(=O)c3ccccc3F)c3ccc(Cl)cc3)nc2[nH]1 | 94.4%
90 | N#C/C(=C/c1ccco1)c1nc(-c2cccc([N+](=O)[O-])c2)cs1 | 116 ± 17%
91 | CCCCOc1ccc(C(=O)NCCc2cc3ccc(C)c(C)c3[nH]c2=O)cc1 | 118%
92 | CCOC(=O)C1CCN(c2nc(C)nc3c2c(C)c(C)n3-c2ccccc2)CC1 | 107%
93 | CCOc1ccc(-n2cc(-c3ccccc3)c3c(N4CCN(C(=O)COc5ccccc5C)CC4)ncnc32)cc1 | 128%
94 | CC1=C(C(N)=O)C(c2ccccc2)n2nc(-c3ccc(O)cc3)nc2N1 (stereo not drawn) | 115%
95 | O=C(NCCCc1nc2cc3ccccc3cc2[nH]1)c1ccc2nccnc2c1 | 114%
96 | NC(=O)c1cc2cc(Br)ccc2o/c1=N\c1ccc(Oc2ccccc2)cc1 | 103%
97 | O=c1c2nnn(Cc3ccccc3F)c2ncn1Cc1cccc([N+](=O)[O-])c1 | 108 ± 14%
98 | CCc1nnc(NC(=O)CSc2ncnc3c(-c4ccc(C)cc4)nsc23)s1 | 121%
99 | COc1ccc(CCNC(=O)Cn2cnc3c(nnn3-c3cccc(Cl)c3)c2=O)cc1OC | 114 ± 8.5%
100 | O=C(NCc1ccccc1)c1cc2cc([N+](=O)[O-])ccc2s1 | 132%
101 | Cc1cc(NC(=O)CSc2nnc(-c3ccncc3)o2)no1 | 104%
102 | CC1CCCN(S(=O)(=O)c2ccc(C(=O)Nc3ccccc3C#N)cc2)C1 (stereo not drawn) | 116%
103 | Cc1cc(C)c2cc(CN(Cc3cccnc3)C(=O)Nc3ccccc3)c(Cl)nc2c1 | 115%
